{
  "sequences": {"note": "Sequences of proteins named here, by UniProt entry; tags and fusion partners are left off. A change or cut given only in a name is not applied to a line headed by its entry.", "UniProt Q9NXA8": "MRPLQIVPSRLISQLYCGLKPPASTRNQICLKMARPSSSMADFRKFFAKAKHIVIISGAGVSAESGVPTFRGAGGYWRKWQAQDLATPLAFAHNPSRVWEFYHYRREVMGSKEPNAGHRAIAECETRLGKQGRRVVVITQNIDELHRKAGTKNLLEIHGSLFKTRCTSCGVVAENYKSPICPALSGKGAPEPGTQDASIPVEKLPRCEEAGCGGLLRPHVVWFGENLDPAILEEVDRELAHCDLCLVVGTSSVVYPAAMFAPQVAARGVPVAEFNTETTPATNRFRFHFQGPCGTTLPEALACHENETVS"},
  "source": "PubChem BioAssay AID720591",
  "about": "(Broad Institute, 2013)",
  "note": "In all, about 1,200 compounds went through this assay and about 60 (5%) were called active. Inconclusive results (about 1%) are left out.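 How the source made its calls: active means Decreasing signal and fitted IC50 at most twice the top valid tested dose; inconclusive means Bad fit or a level curve showing 30 to 70% inhibition; inactive means the rest.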 The list shows a part of the results. Results with a measured potency or affinity are listed apart.",
  "data": [
    {"biological_target": "NAD-dependent protein deacylase sirtuin-5, mitochondrial (Homo sapiens) (UniProt Q9NXA8)", "test": "SIRT5 desuccinylase inhibitors, dose response, biochemical, fluorescence imaging, cherry-pick, set 5 (AID 720591);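 further: 0% = median of neutral control wells and -100% = median of positive control wells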", "details": "Purified SirT5, succinyl-peptide AMC, trypsin-coupled fluorescence; at 15 µM (top of the series) unless noted", "values": [
      {"molecule": "Cc1ccc(OCCSc2nc3ccccc3n2CCC(=O)O)cc1", "activity change, negative = inhibition": "inactive: -29.2%"},
      {"molecule": "Cc1ccc(C(=O)COC(=O)c2ccc3c(c2)C(=O)N(c2cccc4ncccc24)C3=O)cc1", "activity change, negative = inhibition": "inactive: 5.95%"},
      {"molecule": "O=C(Nc1ccnn1C1CCN(Cc2ccc(OC(F)F)cc2)CC1)C1CCCC1", "activity change, negative = inhibition": "inactive: 9.11%"},
      {"molecule": "CC(C)(C)NC(=O)C(c1ccc(F)cc1)N(Cc1ccco1)C(=O)CCC(=O)Nc1ccccn1", "note": "(stereo not given)", "activity change, negative = inhibition": "inactive: -15.6%"},
      {"molecule": "COc1ccc2cc(C)c(SCC(=O)Nc3cc(C)on3)nc2c1", "activity change, negative = inhibition": "inactive: -7.14%"},
      {"molecule": "O=C(COC(=O)CC1CC2CCC1C2)Nc1ccc(F)cc1", "note": "(stereo not given)", "activity change, negative = inhibition": "inactive: 6.05%"},
      {"molecule": "COc1ccc(NC(=O)N(C)C[C@H]2Oc3c(NC(=O)c4nc5ccccc5s4)cccc3C(=O)N([C@@H](C)CO)C[C@H]2C)cc1", "activity change, negative = inhibition": "inactive: -16.6%"},
      {"molecule": "COc1ccc(NC(=O)CN(C)CC(=O)Nc2ccc3c(c2)CCC3)cc1", "activity change, negative = inhibition": "inactive: -0.493%"},
      {"molecule": "C[C@H]1CN([C@@H](C)CO)C(=O)CCCn2nncc2CO[C@@H]1CN(C)C(=O)c1ccc2ccn(C)c2c1", "activity change, negative = inhibition": "inactive: -29.7%"},
      {"molecule": "COc1ccc(C(C)(C)C)cc1S(=O)(=O)n1ccnc1C", "activity change, negative = inhibition": "inactive: -7.4%"},
      {"molecule": "COc1cc(C2C(C#N)=C(N)Oc3c2ccc2ccccc32)ccc1OCC(=O)Nc1ccc(C)cc1", "note": "(stereo not given)", "activity change, negative = inhibition": "inactive: -23.9%"},
      {"molecule": "Cc1ccccc1NS(=O)(=O)c1ccc(C(=O)NCC2CCCO2)cc1", "note": "(stereo not given)", "activity change, negative = inhibition": "inactive: -30.8%"},
      {"molecule": "COC(=O)c1c(NC(C)=O)sc2c1CCN(Cc1ccccc1)C2", "activity change, negative = inhibition": "inactive: -6.96%"},
      {"molecule": "CN(C(=O)c1cccc(NC(=O)Cc2ccc(NC(=O)C3CCN(C(=O)C4CCC4)CC3)cc2)c1)C1CC1", "activity change, negative = inhibition": "inactive: 2.18%"},
      {"molecule": "CCN(CC)c1nc2c(c(=O)[nH]c(=O)n2C)n1Cc1ccccc1", "activity change, negative = inhibition": "inactive: 12.5%"},
      {"molecule": "O=C(c1cccs1)c1coc2ccc(O)c(CN3CCOCC3)c12", "activity change, negative = inhibition": "inactive: 25.9%"},
      {"molecule": "CC(C)C[C@H]1COc2cc(N3CC[C@H](O)C3)ccc2S(=O)(=O)N1", "activity change, negative = inhibition": "inactive: 0.308%"},
      {"molecule": "CN(C)CCCCCN(C)Cc1cc2ccccc2o1", "activity change, negative = inhibition": "inactive: -28.2%"},
      {"molecule": "COc1ccc(C(CNC(=O)C(CC(C)C)NS(=O)(=O)c2ccc(C)cc2)N2CCOCC2)cc1", "note": "(stereo not given)", "activity change, negative = inhibition": "inactive: 19%"},
      {"molecule": "CCC(=O)Nc1cccc(-c2cc3ccccc3oc2=O)c1", "activity change, negative = inhibition": "inactive: 7.85%"},
      {"molecule": "COc1ccc(N2CC(NC(=O)N3CCc4ccccc43)CC2=O)cc1OC", "note": "(stereo not given)", "activity change, negative = inhibition": "inactive: -30%"},
      {"molecule": "COc1ccc(CC(=O)Nc2ccc(C(=O)NCC(C)C)cc2)cc1", "activity change, negative = inhibition": "inactive: 8.8%"},
      {"molecule": "COc1ccc2c(CC(=O)NNC(=O)c3ccc(C)cc3)coc2c1", "activity change, negative = inhibition": "inactive: -14.3%"},
      {"molecule": "CS(=O)(=O)N(CC(=O)N1CCN(Cc2ccccc2)CC1)c1cccc(F)c1", "activity change, negative = inhibition": "inactive: -12.3%"},
      {"molecule": "COc1ccc(C(=O)NC2CC3CCCC(C2)N3Cc2ccccc2)c(OC)c1", "note": "(stereo not given)", "activity change, negative = inhibition": "inactive: -22.3%"},
      {"molecule": "CCN(c1ccccc1)S(=O)(=O)c1ccc(OC)c(NC(=O)Cc2ccc(F)cc2)c1", "activity change, negative = inhibition": "inactive: 11.3%"},
      {"molecule": "Cc1ccc(C(=O)C2CCN(CC(=O)Nc3nc(C)cs3)CC2)cc1", "activity change, negative = inhibition": "inactive: -21.3%"},
      {"molecule": "CCOc1ccccc1NC(=O)CN1c2cccc3cccc(c23)S1(=O)=O", "activity change, negative = inhibition": "inactive: 12.7%"},
      {"molecule": "CC(=O)N(c1ccc2oc(=O)sc2c1)S(=O)(=O)c1ccc(C(=O)O)cc1", "activity change, negative = inhibition": "inactive: 16.3%"},
      {"molecule": "Cc1ccccc1NC(=O)C(NC1CCCCC1)C(C)C", "note": "(stereo not given)", "activity change, negative = inhibition": "inactive: -3.21%"},
      {"molecule": "CN(C)c1ccc(C2Nc3ccccc3C(=O)N2NS(C)(=O)=O)cc1", "note": "(stereo not given)", "activity change, negative = inhibition": "inactive: -14%"},
      {"molecule": "Cc1ccc(-n2c(SCC(=O)N(C)C)nnc2-c2ccco2)cc1", "activity change, negative = inhibition": "inactive: 10.6%"},
      {"molecule": "CCCSc1ccc([C@@H]2[C@H]3C(=O)N(CC)C(=O)[C@H]3[C@]3(C(=O)OC)CCCN23)cc1", "activity change, negative = inhibition": "inactive: 3.88%"},
      {"molecule": "Cc1cc(=O)[nH]c2c1c(C)nn2-c1ccccc1", "activity change, negative = inhibition": "inactive: -32.5%"},
      {"molecule": "Cc1ccc(N2CC(C(=O)Nc3ccc(S(=O)(=O)Nc4nccs4)cc3)CC2=O)cc1C", "note": "(stereo not given)", "activity change, negative = inhibition": "inactive: -9.3%"},
      {"molecule": "Cc1cc(NC(=O)CCC(=O)N(Cc2ccccc2)C(C(=O)NC2CCCC2)c2ccco2)no1", "note": "(stereo not given)", "activity change, negative = inhibition": "inactive: -6.35%"},
      {"molecule": "CCOC(=O)c1nn(-c2ccccc2)cc1O", "activity change, negative = inhibition": "inactive: 1.73%"},
      {"molecule": "Cc1cc(NC(=O)CCC(=O)N(Cc2ccco2)C(C(=O)NC2CCCC2)c2ccc(F)cc2)no1", "note": "(stereo not given)", "activity change, negative = inhibition": "inactive: -29.1%"},
      {"molecule": "NCC(O)CN(c1ccccc1)c1ccccc1", "note": "(stereo not given)", "activity change, negative = inhibition": "inactive: 0.799%"},
      {"molecule": "CCOc1ccc(-n2c(SCC(N)=O)nnc2-c2ccco2)cc1", "activity change, negative = inhibition": "inactive: 10.9%"},
      {"molecule": "COc1ccc(C(=O)OC(C)C(=O)NCC2CCCCC2)cc1S(=O)(=O)N1CCOCC1", "note": "(stereo not given)", "activity change, negative = inhibition": "inactive: -28.7%"},
      {"molecule": "Cc1noc(C)c1-c1ccc(C(=O)Nc2cccc(C(F)(F)F)c2)c2occc12", "activity change, negative = inhibition": "inactive: -0.448%"},
      {"molecule": "COc1ccc([C@H]2N[C@]3(CCCN(Cc4cccn4C)C3=O)[C@H]3C(=O)N(C)C(=O)[C@@H]23)cc1", "activity change, negative = inhibition": "inactive: 1.22%"},
      {"molecule": "Cc1cc(NS(=O)(=O)c2ccc(NC(=O)COc3ccc(Br)cc3)cc2)nc(C)n1", "activity change, negative = inhibition": "inactive: -24%"},
      {"molecule": "CCN(CC(=O)Nc1c(F)cccc1F)C(=O)c1ccc2c(c1)NC(=O)C(C)S2", "note": "(stereo not given)", "activity change, negative = inhibition": "inactive: -21.9%"},
      {"molecule": "CC(C)Cc1ccc(-c2cc3nc(NCCc4ccc(S(N)(=O)=O)cc4)ccn3n2)cc1", "activity change, negative = inhibition": "inactive: -12%"},
      {"molecule": "CCCn1nc(Oc2nc(N(C)C)nc(N(C)C)n2)ccc1=O", "activity change, negative = inhibition": "inactive: -20.2%"},
      {"molecule": "CCCN1CCN(C(=O)c2ccc3nc(CC)c(CC)nc3c2)CC1", "activity change, negative = inhibition": "inactive: 2.44%"},
      {"molecule": "O=C(NC1CCCCC1)C(c1ccco1)N(C(=O)c1csnn1)c1ccc(Cl)cc1", "note": "(stereo not given)", "activity change, negative = inhibition": "inactive: 6.29%"},
      {"molecule": "O=C(Cc1ccc(Cl)cc1)Nc1ccc(CN2CCCCC2)cc1", "activity change, negative = inhibition": "inactive: 4.66%"},
      {"molecule": "CC(C)C(=O)Nc1cccc(COc2ccccc2CN(Cc2ccccc2)C(=O)OC(C)(C)C)c1", "activity change, negative = inhibition": "inactive: -27.9%"},
      {"molecule": "C#CC1(NC(=O)NC(C)(C)C)CCCCC1", "activity change, negative = inhibition": "inactive: 3.86%"},
      {"molecule": "CC(C)NC(=O)Nc1cccc2c1O[C@H](CN(C)S(=O)(=O)c1cccs1)[C@@H](C)CN([C@H](C)CO)C2=O", "activity change, negative = inhibition": "inactive: -16.3%"},
      {"molecule": "CN(C)CCNC(=O)c1cccc(S(=O)(=O)Nc2ccccc2F)c1", "activity change, negative = inhibition": "inactive: 14%"},
      {"molecule": "CCOC(=O)CSc1nc2cc(OCC)ccc2cc1C#N", "activity change, negative = inhibition": "inactive: -25.9%"}
    ]}
  ]
}
